Results on 3 substances are retold here after PMC10392139.

The chains behind the UniProt entries cited, without tags or fusion partners. Residues count along the entry.
UniProt P17931: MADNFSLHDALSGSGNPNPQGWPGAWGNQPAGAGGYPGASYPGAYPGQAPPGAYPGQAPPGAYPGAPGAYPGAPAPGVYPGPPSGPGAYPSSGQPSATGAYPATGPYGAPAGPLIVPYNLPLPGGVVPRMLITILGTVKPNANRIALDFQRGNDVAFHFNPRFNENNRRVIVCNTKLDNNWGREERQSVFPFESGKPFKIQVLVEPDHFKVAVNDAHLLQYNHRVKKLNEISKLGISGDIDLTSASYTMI
UniProt P09758, residues 27-323: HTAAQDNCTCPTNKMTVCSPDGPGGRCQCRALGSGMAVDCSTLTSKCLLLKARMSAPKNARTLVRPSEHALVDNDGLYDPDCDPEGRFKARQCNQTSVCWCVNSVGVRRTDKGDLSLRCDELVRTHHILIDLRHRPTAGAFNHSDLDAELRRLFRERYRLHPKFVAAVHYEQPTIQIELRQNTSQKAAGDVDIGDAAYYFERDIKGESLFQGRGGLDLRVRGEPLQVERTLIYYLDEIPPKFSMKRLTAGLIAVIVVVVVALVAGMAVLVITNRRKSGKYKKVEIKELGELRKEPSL
UniProt Q9NQB0: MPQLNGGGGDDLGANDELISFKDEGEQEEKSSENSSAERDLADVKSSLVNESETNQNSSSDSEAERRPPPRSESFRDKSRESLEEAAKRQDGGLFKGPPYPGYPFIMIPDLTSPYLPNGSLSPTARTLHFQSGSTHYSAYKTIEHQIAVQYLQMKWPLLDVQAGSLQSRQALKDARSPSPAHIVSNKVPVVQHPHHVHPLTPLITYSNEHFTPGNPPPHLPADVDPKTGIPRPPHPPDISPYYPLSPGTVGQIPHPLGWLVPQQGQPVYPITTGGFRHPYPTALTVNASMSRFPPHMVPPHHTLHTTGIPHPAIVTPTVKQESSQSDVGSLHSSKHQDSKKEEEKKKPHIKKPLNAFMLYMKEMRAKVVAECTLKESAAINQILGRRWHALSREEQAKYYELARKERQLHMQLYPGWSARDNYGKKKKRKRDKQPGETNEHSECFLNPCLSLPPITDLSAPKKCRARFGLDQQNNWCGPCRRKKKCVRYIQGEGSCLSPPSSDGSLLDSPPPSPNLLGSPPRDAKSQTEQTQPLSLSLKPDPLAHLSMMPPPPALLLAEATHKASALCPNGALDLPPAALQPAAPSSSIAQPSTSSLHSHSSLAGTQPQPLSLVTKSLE

No constants are given. Whether binding was seen depends on the method and setting. Binding seen in cells or lysates may run through a third protein. Some entries that bind do so weakly or less than the wild type.

One experiment has as its target galectin-3 (UniProt P17931). Nature of the experiment: pull-down; galectin-3-Sepharose incubated with cell lysates (HCT116 Trop-2 transfectant, MCF-7, DU145) at 4 °C for 3 h in the absence of lactose; washed with PBS; immunoblot for Trop-2; only the target purified.
Experiment [1] deals with FLAG- and HA-tagged wild-type Trop-2 (UniProt P09758). The experiment can be described thus: co-IP; immunoprecipitates from lysates of WT-HA HCT116 cells with anti-HA-tag antibodies; immunoblot for β-catenin and TCF4.

Regarding “FLAG- and HA-tagged wild-type Trop-2 (from UniProt P09758 27-323)”, the binding entry in the experiment with galectin-3 was “binds”.
On the same count and under the same terms, the entry for “Trop-2 expressed in MCF-7 cells and DU145 cells (from UniProt P09758 27-323)” is “binds”.
Turning to “transcription factor 4 (TCF4) (from UniProt Q9NQB0 1-619)”, in experiment [1], the binding entry was “binds”.
